Experimental data from US8476434B2, “Protein kinase modulators and method of use” (Amgen Inc., priority 2004, dated 2013).
Some of these results come from one statement about several compounds together.

By UniProt entry, the sequences of proteins in these tests, tags left out. Residues count along the entry.
UniProt Q02763, 23-1124: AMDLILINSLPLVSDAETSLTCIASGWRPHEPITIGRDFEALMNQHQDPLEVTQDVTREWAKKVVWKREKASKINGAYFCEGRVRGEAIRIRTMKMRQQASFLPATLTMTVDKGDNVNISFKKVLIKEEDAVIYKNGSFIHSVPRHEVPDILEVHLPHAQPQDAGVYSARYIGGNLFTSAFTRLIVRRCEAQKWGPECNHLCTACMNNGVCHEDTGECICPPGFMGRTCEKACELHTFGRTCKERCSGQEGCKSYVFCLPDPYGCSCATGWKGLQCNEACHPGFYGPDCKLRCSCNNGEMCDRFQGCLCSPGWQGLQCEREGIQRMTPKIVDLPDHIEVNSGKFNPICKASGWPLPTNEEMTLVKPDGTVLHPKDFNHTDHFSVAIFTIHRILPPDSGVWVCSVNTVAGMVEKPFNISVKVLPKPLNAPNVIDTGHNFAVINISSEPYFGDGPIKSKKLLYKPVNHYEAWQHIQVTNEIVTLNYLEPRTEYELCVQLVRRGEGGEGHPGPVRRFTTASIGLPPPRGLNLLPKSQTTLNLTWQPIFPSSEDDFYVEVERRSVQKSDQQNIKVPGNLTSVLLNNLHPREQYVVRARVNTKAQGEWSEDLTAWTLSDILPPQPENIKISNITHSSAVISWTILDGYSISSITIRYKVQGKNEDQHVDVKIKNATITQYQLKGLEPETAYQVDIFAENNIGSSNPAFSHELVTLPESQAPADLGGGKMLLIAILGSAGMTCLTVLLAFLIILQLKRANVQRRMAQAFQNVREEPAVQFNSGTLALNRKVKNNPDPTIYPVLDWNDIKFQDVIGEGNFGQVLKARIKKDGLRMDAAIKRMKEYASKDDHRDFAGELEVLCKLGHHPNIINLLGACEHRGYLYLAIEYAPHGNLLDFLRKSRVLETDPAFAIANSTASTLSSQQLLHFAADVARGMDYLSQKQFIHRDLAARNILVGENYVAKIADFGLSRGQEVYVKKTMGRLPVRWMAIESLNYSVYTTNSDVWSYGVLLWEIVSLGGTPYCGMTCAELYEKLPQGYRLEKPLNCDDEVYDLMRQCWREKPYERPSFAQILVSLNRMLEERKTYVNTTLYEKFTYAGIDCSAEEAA

Key:
[1] = target: Tie-2 kinase enzyme (Homo sapiens, UniProt Q02763); experiment: Tie-2 Homogenous Time Resolved Fluorescent (HTRF) kinase assay; assay type: biochemical; conditions: read-out: IC50's for the inhibition of Tie-2 as measured by the HTRF assay
[2] = target: T1, AuroraA-TPX2 KD GST (Homo sapiens, UniProt O14965); experiment: AuroraA-TPX2 Homogeneous Time Resolved Fluorescent (HTRF) kinase assay; assay type: biochemical; conditions: read-out: activity in the Aurora kinase A HTRF assay
T1 construct: AuroraA-TPX2 KD GST; GST
T1 sequence (O14965 133-383 limits assumed): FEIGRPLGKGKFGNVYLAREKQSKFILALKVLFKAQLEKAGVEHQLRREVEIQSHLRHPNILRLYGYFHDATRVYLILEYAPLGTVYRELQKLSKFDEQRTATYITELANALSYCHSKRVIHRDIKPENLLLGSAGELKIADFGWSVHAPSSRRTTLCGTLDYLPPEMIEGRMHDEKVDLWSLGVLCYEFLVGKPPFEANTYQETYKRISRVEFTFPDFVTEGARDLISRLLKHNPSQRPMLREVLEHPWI
T1 sequence (Q9ULW0 1-43 partner limits assumed): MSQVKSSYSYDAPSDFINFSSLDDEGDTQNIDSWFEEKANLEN

## CNc1nccc(-c2cccnc2Oc2ccc(NC(=O)Nc3cc(C(C)(C)C)ccc3C(C)(C)C)cc2C)n1 [Example 817, N-(2,5-bis(1,1-dimethylethyl)phenyl)-N′-(3-methyl-4-((3-(2-(methylamino)-4-pyrimidinyl)-2-pyridinyl)oxy)phenyl)urea]
[1]
  IC50: < 5 µM
[2]
  IC50: < 10 µM

## CNc1nccc(-c2cccnc2Oc2ccc(NC(=O)NCc3cccc(C)c3)cc2C)n1 [Example 820, N-(3-methyl-4-((3-(2-(methylamino)-4-pyrimidinyl)-2-pyridinyl)oxy)phenyl)-N′-((3-methylphenyl)methyl)urea]
[1]
  IC50: < 5 µM
[2]
  IC50: < 10 µM

## CNc1nccc(-c2cccnc2Oc2ccc(NC(=O)Nc3cc(C4CCN(C)CC4)cc(C(F)(F)F)c3)cc2C)n1 [Example 823, N-(3-methyl-4-((3-(2-(methylamino)-4-pyrimidinyl)-2-pyridinyl)oxy)phenyl)-N′-(3-(1-methyl-4-piperidinyl)-5-(trifluoromethyl)phenyl)urea]
[1]
  IC50: < 5 µM
[2]
  IC50: < 10 µM

## CNc1nccc(-c2cccnc2Oc2ccc(NC(=O)Nc3cc(C)ccc3OC)cc2C)n1 [Example 825, N-(3-methyl-4-((3-(2-(methylamino)-4-pyrimidinyl)-2-pyridinyl)oxy)phenyl)-N′-(5-methyl-2-(methyloxy)phenyl)urea]
[1]
  IC50: < 5 µM
[2]
  IC50: < 10 µM

## CNc1nccc(-c2cccnc2Oc2ccc(NC(=O)Nc3cc(C)ccc3C)cc2C)n1 [Example 826, N-(2,5-dimethylphenyl)-N′-(3-methyl-4-((3-(2-(methylamino)-4-pyrimidinyl)-2-pyridinyl)oxy)phenyl)urea]
[1]
  IC50: < 5 µM
[2]
  IC50: < 10 µM

## CCc1cccc(NC(=O)Nc2ccc(Oc3ncccc3-c3ccnc(NC)n3)c(C)c2)c1 [Example 827, N-(3-ethylphenyl)-N′-(3-methyl-4-((3-(2-(methylamino)-4-pyrimidinyl)-2-pyridinyl)oxy)phenyl)urea]
[1]
  IC50: < 5 µM
[2]
  IC50: < 10 µM

## CNc1nccc(-c2cccnc2Oc2ccc(NC(=O)Nc3cc(Cl)ccc3OC)cc2Cl)n1 [Example 834, N-(3-chloro-4-((3-(2-(methylamino)-4-pyrimidinyl)-2-pyridinyl)oxy)phenyl)-N′-(5-chloro-2-(methyloxy)phenyl)urea]
[1]
  IC50: < 5 µM
[2]
  IC50: < 10 µM

## CNc1nccc(-c2cccnc2Oc2ccc(NC(=O)Nc3cc(F)cc(C(F)(F)F)c3)cc2Cl)n1 [Example 836, N-(3-chloro-4-((3-(2-(methylamino)-4-pyrimidinyl)-2-pyridinyl)oxy)phenyl)-N′-(3-fluoro-5-(trifluoromethyl)phen-yl)urea]
[1]
  IC50: < 5 µM
[2]
  IC50: < 10 µM

## CNc1nccc(-c2cccnc2Oc2ccc(NC(=O)Nc3cc(CN4CCN(C)CC4)cc(C(F)(F)F)c3)cc2C)n1 [Example 838, N-(3-methyl-4-((3-(2-(methylamino)-4-pyrimidinyl)-2-pyridinyl)oxy)phenyl)-N′-(3-((4-methyl-1-piperazinyl)methyl)-5-(trifluoromethyl)phenyl)urea]
[1]
  IC50: < 5 µM
[2]
  IC50: < 10 µM

## CNc1nccc(-c2cccnc2Oc2ccc(NC(=O)Nc3cc(C(=O)N4CCN(C)CC4)cc(C(F)(F)F)c3)cc2C)n1 [Example 839, N-(3-methyl-4-((3-(2-(methylamino)-4-pyrimidinyl)-2-pyridinyl)oxy)phenyl)-N′-(3-((4-methyl-1-piperazinyl)carbonyl)-5-(trifluoromethyl)phenyl)urea]
[1]
  IC50: < 5 µM
[2]
  IC50: < 10 µM

## CCc1ccnc(NC(=O)Nc2ccc(Oc3ncccc3-c3ccnc(NC)n3)c(C)c2)c1 [Example 843, N-(4-ethyl-2-pyridinyl)-N′-(3-methyl-4-((3-(2-(methylamino)-4-pyrimidinyl)-2-pyridinyl)oxy)phenyl)urea]
[1]
  IC50: < 5 µM
[2]
  IC50: < 10 µM

## CNc1nccc(-c2cccnc2Oc2ccc(NC(=O)N3CCCc4ccc(C(F)(F)F)cc43)cc2C)n1 [Example 844, N-(3-methyl-4-((3-(2-(methylamino)-4-pyrimidinyl)-2-pyridinyl)oxy)phenyl)-7-(trifluoromethyl)-3,4-dihydro-1(2H)-quinolinecarboxamide]
[1]
  IC50: < 5 µM
[2]
  IC50: < 10 µM

## CNc1ncnc(-c2cccnc2Oc2ccc(NC(=O)Nc3cc(Cl)ccc3OC)c3ccccc23)n1 [Example 846, N-(5-chloro-2-(methyloxy)phenyl)-N′-(4-((3-(4-(methylamino)-1,3,5-triazin-2-yl)-2-pyridinyl)oxy)-1-naphthalenyl)urea]
[1]
  IC50: < 5 µM
[2]
  IC50: < 10 µM

## CNc1nccc(-c2cccnc2Oc2ccc(NC(=O)Nc3onc(C)c3C)cc2C)n1 [Example 851, N-(3,4-dimethyl-5-isoxazolyl)-N′-(3-methyl-4-((3-(2-(methylamino)-4-pyrimidinyl)-2-pyridinyl)oxy)phenyl) urea]
[1]
  IC50: < 5 µM
[2]
  IC50: < 10 µM

## CNc1nccc(-c2cccnc2Oc2ccc(NC(=O)Nc3cc(C(F)(F)F)ccc3CN(C)C)cc2C)n1 [Example 852, N-(2-((dimethylamino)methyl)-5-(trifluoromethyl)phenyl)-N′-(3-methyl-4-((3-(2-(methylamino)-4-pyrimidinyl)-2-pyridinyl)oxy)phenyl) urea]
[1]
  IC50: < 5 µM
[2]
  IC50: < 10 µM

## C#Cc1ccc(N(C)CCCN(C)C)c(NC(=O)Nc2ccc(Oc3ncccc3-c3ccnc(NC)n3)c(C)c2)c1 [Example 859, N-(2-((3-(dimethylamino)propyl) (methyl)amino)-5-ethynylphenyl)-N′-(3-methyl-4-((3-(2-(methylamino)-4-pyrimidinyl)-2-pyridinyl)oxy)phenyl)urea]
[1]
  IC50: < 5 µM
[2]
  IC50: < 10 µM

## CNc1nccc(-c2cccnc2Oc2ccc(NC(=O)Nc3cc(C(=O)N4CCS(=O)(=O)CC4)cc(C(F)(F)F)c3)cc2C)n1 [Example 860, N-(3-((1,1-dioxido-4-thiomorpholinyl)carbonyl)-5-(trifluoromethyl)phenyl)-N′-(3-methyl-4-((3-(2-(methylamino)-4-pyrimidinyl)-2-pyridinyl)oxy)phenyl) urea]
[1]
  IC50: < 5 µM
[2]
  IC50: < 10 µM

## CNc1nccc(-c2cccnc2Oc2ccc(NC(=O)Nc3cccc(C)c3C)cc2C)n1 [Example 862, N-(2,3-dimethylphenyl)-N′-(3-methyl-4-((3-(2-(methylamino)-4-pyrimidinyl)-2-pyridinyl)oxy)phenyl)urea]
[1]
  IC50: < 5 µM
[2]
  IC50: < 10 µM

## CNc1nccc(-c2cccnc2Oc2ccc(NC(=O)Nc3ccc(C(F)(F)F)cc3Cl)cc2C)n1 [Example 863, N-(2-chloro-4-(trifluoromethyl)phenyl)-N′-(3-methyl-4-((3-(2-(methylamino)-4-pyrimidinyl)-2-pyridinyl)oxy)phenyl)urea]
[1]
  IC50: < 5 µM
[2]
  IC50: < 10 µM

## CNc1nccc(-c2cccnc2Oc2ccc(NC(=O)Nc3ccc(Cl)c(C(F)(F)F)c3)cc2C)n1 [Example 864, N-(4-chloro-3-(trifluoromethyl)phenyl)-N′-(3-methyl-4-((3-(2-(methylamino)-4-pyrimidinyl)-2-pyridinyl)oxy)phenyl)urea]
[1]
  IC50: < 5 µM
[2]
  IC50: < 10 µM

## CNc1nccc(-c2cccnc2Oc2ccc(NC(=O)Nc3cc(Cl)c(OC)cc3OC)cc2C)n1 [Example 867, N-(5-chloro-2,4-bis(methyloxy)phenyl)-N′-(3-methyl-4-((3-(2-(methylamino)-4-pyrimidinyl)-2-pyridinyl)oxy)phenyl)urea]
[1]
  IC50: < 5 µM
[2]
  IC50: < 10 µM

## CNc1ncnc(-c2cccnc2Oc2ccc(NC(=O)Nc3cc(Cl)ccc3Cl)cc2C)n1 [Example 873, N-(2,5-dichlorophenyl)-N′-(3-methyl-4-((3-(4-(methylamino)-1,3,5-triazin-2-yl)-2-pyridinyl)oxy)phenyl)urea]
[1]
  IC50: < 5 µM
[2]
  IC50: < 10 µM

## CCOc1cccc(NC(=O)Nc2ccc(Oc3ncccc3-c3ncnc(NC)n3)c(Cl)c2)c1 [Example 874, 1-(3-chloro-4-(3-(4-(methylamino)-1,3,5-triazin-2-yl)pyridin-2-yloxy)phenyl)-3-(3-ethoxyphenyl)urea]
[1]
  IC50: < 5 µM
[2]
  IC50: < 10 µM

## CCc1cccc(NC(=O)Nc2ccc(Oc3ncccc3-c3ncnc(NC)n3)c(Cl)c2)c1 [Example 875, N-(3-chloro-4-((3-(4-(methylamino)-1,3,5-triazin-2-yl)-2-pyridinyl)oxy)phenyl)-N′-(3-ethylphenyl)urea]
[1]
  IC50: < 5 µM
[2]
  IC50: < 10 µM

## CNc1nccc(-c2cccnc2Oc2ccc(NC(=O)Nc3cc(OC)ccc3OC)cc2C)n1 [Example 878, N-(2,5-bis(methyloxy)phenyl)-N′-(3-methyl-4-((3-(2-(methylamino)-4-pyrimidinyl)-2-pyridinyl)oxy)phenyl)urea]
[1]
  IC50: < 5 µM
[2]
  IC50: < 10 µM

## CNc1nccc(-c2cccnc2Oc2ccc(NC(=O)Nc3cc(C4CC4)ccc3N(C)CCCN(C)C)cc2C)n1 [Example 880, N-(5-cyclopropyl-2-((3-(dimethylamino)propyl) (methyl)amino)phenyl)-N′-(3-methyl-4-((3-(2-(methylamino)-4-pyrimidinyl)-2-pyridinyl)oxy)phenyl)urea]
[1]
  IC50: < 5 µM
[2]
  IC50: < 10 µM

## COc1ccc(Cl)cc1NC(=O)Nc1ccc(Oc2ncccc2-c2ccnc(NCCCN3CCOCC3)n2)c(C)c1 [Example 881, N-(5-chloro-2-(methyloxy)phenyl)-N′-(3-methyl-4-((3-(2-((3-(4-morpholinyl)propyl)amino)-4-pyrimidinyl)-2-pyridinyl)oxy)phenyl)urea]
[1]
  IC50: < 5 µM
[2]
  IC50: < 10 µM

## CNc1nccc(-c2cccnc2Oc2ccc(NC(=O)Nc3ccc(F)c(Cl)c3)cc2C)n1 [Example 882, N-(3-chloro-4-fluorophenyl)-N′-(3-methyl-4-((3-(2-(methylamino)-4-pyrimidinyl)-2-pyridinyl)oxy)phenyl)urea]
[1]
  IC50: < 5 µM
[2]
  IC50: < 10 µM
